For 1 compound, EC50 results are on record in patent US11246873B2, “Directed differentiation of oligodendrocyte precursor cells to a myelinating cell fate” (The Scripps Research Institute, priority 2011, dated 2022).

Usually EC50 stands for the concentration that produces a half-maximal response.

This experiment deals with rat optic nerve derived OPCs. The experiment is described as follows: High content imaging assay of OPC differentiation (MBP immunostaining, OPERA). Particulars: 144 h, 6 days, basal differentiation conditions, MBP expression, read-out: EC50 for induction of OPC differentiation. Format: cell-based. As to the method: FIG. 1A-C. […] The calculated EC50 values were determined using appropriate Graphpad Prism 5.0 curve fitting software. […] OPCs were plated in 384 well plates at 1000 cells per well in OPC media containing basal PDGF-αα (2 ng/mL) and treated with serial dilutions of compounds. Following six days of compound treatment, cells were fixed and subjected to immunofluorescence analysis using anti-myelin basic protein (MBP) antibody. Image acquisition and quantification of MBP staining was performed using the OPERA imaging system.
FIG. 11A-B. Screen to identify inducers of OPC differentiation. (A) OPCs were maintained as proliferating A2B5-positive cells under basal growth conditions (Neurobasal medium, B27 supplement without Vitamin A, non-essential amino acids, L-Glutamine, 30 ng/ml PDGF). OPCs were plated in basal differentiation media (Neurobasal medium, B27 supplement without Vitamin A, non-essential amino acids, L-Glutamine, 2 ng/ml PDGF), treated with DMSO (<0.1%) or thyroid hormone (1 uM), fixed after 6 days in culture, and stained using antibodies for CNP, O4, or MBP. […]
FIG. 12A-B. Primary hit confirmation. […] (EC50) is defined as the concentration that results in a half maximal increase in the percentage of total cells that express MBP as detected by immunostaining. […]

With `CN1[C@@H]2CC[C@H]1C[C@@H](OC(c1ccccc1)c1ccccc1)C2` [benztropine], the EC50 was about 350 nM.
